The name of at least one read-out is uncertain.
System: fetal dopaminergic neurons in culture
Assay: Neuroprotection and differentiation of dopaminergic (TH+) neurons in primary culture of rat embryo mesencephalon (spontaneous degeneration model)
Type: cell-based
Details: 100 nM; survival of TH+ dopaminergic neurons after 8 days of culture
Experimental: Dissection consists in extracting the embryos from the uterus of a rat at fifteen days of gestation. The brain of each embryo is then dissected under a binocular magnifier in order to extract the ventral mesencephalon.
The mesencephalons are gathered in a flask containing 2 ml of L15 medium and then mechanically dissociated (30 times), and then 5 ml of L15 medium are added. The suspension is left to rest for 8 minutes. 5 ml of the supernatant are recovered in a new flask and the cells are dissociated again (30 times). 5 ml of L15 are again added and the suspension is left to rest for 8 minutes. 5 ml of supernatant are added to the preceding. The cells thus extracted are then centrifuged for 5 minutes at 1,000 rpm. […]
Neuroprotection is evaluated by counting TH positive neurons directly under the microscope or MAP2 positive on images, at 15 images per well, expressed as a percentage of the untreated control. […] Total neurite length per cell calculated by the Neurite Outgrowth software by Explora Nova on 20 neurons photographed independently per well gives an indication of the state of maturation of the dopaminergic neurons. […]
The neuroprotective effect of the compounds of the invention was evaluated by counting dopaminergic neurons (TH^+) marked by tyrosine hydroxylase (TH) immunohistochemistry after 8 days of culture. […]

Question: With C#CC(O)CCCCCCCCCCCCC#Cc1ccc2ccccc2n1 (stereo not shown) [Compound N3, 17-(quinolin-2-yl)heptadec-1,16-diyn-3-ol] as the molecule, how does the “% Neurons relative to the control ±SEM” value read?
Answer: Its value is 142.6 ± 2.6%.
